Results from publication PMC12204631.

T1: 6HIS-HA-JHD2 (S. cerevisiae) (UniProt P47156)
T1 sequence: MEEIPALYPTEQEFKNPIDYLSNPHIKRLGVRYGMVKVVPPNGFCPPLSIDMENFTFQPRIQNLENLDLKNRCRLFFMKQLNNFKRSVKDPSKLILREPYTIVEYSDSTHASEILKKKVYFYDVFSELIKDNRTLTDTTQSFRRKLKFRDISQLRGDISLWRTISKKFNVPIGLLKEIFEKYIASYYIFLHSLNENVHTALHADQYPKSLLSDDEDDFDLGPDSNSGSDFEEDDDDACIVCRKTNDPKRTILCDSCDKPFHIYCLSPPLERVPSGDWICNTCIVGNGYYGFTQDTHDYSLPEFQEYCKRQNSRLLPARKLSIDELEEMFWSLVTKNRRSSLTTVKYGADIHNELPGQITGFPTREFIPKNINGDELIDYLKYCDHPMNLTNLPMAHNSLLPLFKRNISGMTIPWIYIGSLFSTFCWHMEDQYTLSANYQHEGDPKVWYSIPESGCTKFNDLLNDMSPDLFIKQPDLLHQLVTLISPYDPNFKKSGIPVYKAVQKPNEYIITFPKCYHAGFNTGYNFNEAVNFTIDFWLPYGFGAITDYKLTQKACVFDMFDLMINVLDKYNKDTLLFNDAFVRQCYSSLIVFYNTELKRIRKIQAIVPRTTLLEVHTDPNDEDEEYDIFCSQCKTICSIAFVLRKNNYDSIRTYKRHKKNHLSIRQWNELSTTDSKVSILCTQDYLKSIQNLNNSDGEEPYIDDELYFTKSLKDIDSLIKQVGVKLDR


Target: T1, 6HIS-HA-JHD2 (S. cerevisiae)
Experiment: affinity purification with mass spectrometry; whole cell extracts of a wild-type strain with 6HIS-HA-JHD2 induced from the GAL1 promoter for 6 hours; Ni-NTA agarose and anti-HA agarose beads at 4°C for 24 hours; proteins found with the empty vector strain excluded

binding	Binder
binds	Nud1 (protein, UniProt P32336 1-851) MDMDTQEAELSSQLENLTINSPRKLRSNAHSNSGKVFKEYESNHDFQDSNFTSQVVEPAISDSVKKPPTMTVLNNYSTVHQKVPSGFSGTTATSHQEAQWKQYFPGIGSGGGTNFGGAVGTANKVPESDLIVSDLVKDLSGVLETNTFKRHLDMKNKTTTMQTHENHDTISISHSKDFFNAEKVSSSFSDDSDSGPAAEAHDVFDGILQKQKSNYLVGSYPSNSNNKNNNNNNNNNNNNSININNKDNARTKEEDEEDTSNSFEFSSSSSMSSSQTQSGRKSKVLKKPPLNTISPGQLGYQFNHTHGAWDPPLNQGLDVSSSHSLDNTSSNQSQFATMVPTGDNHTNGKAPSILDKKAYELTSTKPGDVGYRQKKIQEEENLANSDDTPLDTPKFNDLFTKNGTRAKVKGQMRTSRSISNSNLLEAHKKLKTFPAERVEDITSISEVNTSFNETEKQLISILTSKLSGSPSYDSDWEKILKVDLSRGKLKNMFGMQRLLPNVLVLNLSDNEMNTLEGIPSNVVQLFCSNNKITSAHCSLAGFHDLECLDLSYNLLNTSLKFLSLCHHLQEVNLSYNSIQSLEGIGSSRMKKLNLSNNEINGIIDFEQLILTNNSVVGGWLTVEVLDLSNNNIIGVRNINCLPRLKVLNLNGNPLVSIVESSKMENGTLRALSIKNTGGALSKLQNYKLDDQFTFPYQNLKILKLDGFAQLSKWQKWPATLQILEINGGLASSLPRFSSLKSTNLYSLTIANVRDFTHLPVDLSKELPFLQELHLPGNNLQNAHKLTKTLPRQSVKFLDLRNNPITTPRHDRASTSLHYRQLLQLAGLCQQQCPALATLWLDDTPAPTATNL
binds	DUO1 (protein, UniProt P53168 1-247) MSEQSQLDDSTIDKLIPQIFNEMRSNLNNTTNKFPKSTGGGASDNISANSNSIRSFNSITTQSLLKESESLDKITAMIKNVTAALKNNLPVYVNQVHEVCKSTNSILDSWINIHSQAGYIHKLMSDQTYLKLINDRLHNENVNTNDEDGSTLHNVIALKKKEILDLRQKLENRKGEKDAAPAKPPNQGLNPRYGVQSGRRPVPSAGISNNGRVRKTHVPASKRPSGIPRVTNRWTKPTASSSRKMFR
binds	Mob1 (protein, UniProt P40484 1-314) MSFLQNFHISPGQTIRSTRGFKWNTANAANNAGSVSPTKATPHNNTINGNNNNANTINNRADFTNNPVNGYNESDHGRMSPVLTTPKRHAPPPEQLQNVTDFNYTPSHQKPFLQPQAGTTVTTHQDIKQIVEMTLGSEGVLNQAVKLPRGEDENEWLAVHCVDFYNQINMLYGSITEFCSPQTCPRMIATNEYEYLWAFQKGQPPVSVSAPKYVECLMRWCQDQFDDESLFPSKVTGTFPEGFIQRVIQPILRRLFRVYAHIYCHHFNEILELNLQTVLNTSFRHFCLFAQEFELLRPADFGPLLELVMELRDR

Second part, the binder before the results:

Binder	binding
DAD3 (protein, UniProt P69850 1-94) MEHNLSPLQQEVLDKYKQLSLDLKALDETIKELNYSQHRQQHSQQETVSPDEILQEMRDIEVKIGLVGTLLKGSVYSLILQRKQEQESLGSNSK	binds
DAD2 (protein, UniProt P36162 1-133) MDSIDEQIAIKRKELQSLQKITSLTDGLKIQLTELNEQIKEMGMNADSVAQLMNNWDSIINNISQASLGLLQYAEGDYEIGPWKDSKKKESEQSNETGLEAQENDKNDEDNDEDEDLVPLPETMVRIRVDGNE	binds

Results are given in words; binding and its absence hold for the method and conditions named. In cells and extracts the contact can be indirect. Here binding means that the protein was enriched with, or labelled near, the bait; the list need not be complete. Sequences can lack the tags named with a protein.
